# Data: PubChem BioAssay AID624297 (National Center for Advancing Translational Sciences (NCATS), 2012)
# Out of some 340,000 compounds screened, about 6,200 (1.8%) were called active. Inconclusive results, whose numbers are uncertain, are shown with a selection of clear calls. The call rests on the fitted dose curve; in most records, active means well fitted activation curve with a large enough effect; inconclusive means small, poorly fitted or top-dose-only effect; inactive means no such curve, though single readings can be large or run the other way. Potencies of inconclusive entries are doubtful fits and often do not repeat.
# Assay: A quantitative high throughput screen for small molecules that induce DNA re-replication in SW480 colon adenocarcinoma cells. Further: nearly all actives have a fitted effect of over 55% in size. On re-replication activation: % of control where 0% means no effect.
# Conditions: Hoechst DNA content imaging, 48 h; re-replication activation: at 46.1 µM (top of the series) unless noted
# Procedure, shortened: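 Cells (250 per well) received 23 nL compound or DMSO by pin tool and were kept 48 hr at 37 C, 5% CO2. Nuclei were then stained with Hoechst for 40 min and scanned for DNA content.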
# Potency means the concentration at half of the fitted maximal effect.
SMILES,re-replication activation,Potency
O=C(O)CC(Cc1ccccc1)(C(=O)O)c1ccccc1 (stereo not given),inactive: 3.26%,–
Cc1ccc(S(=O)(=O)N2CCN(CC(=O)N/N=C/C=C/c3ccccc3)CC2)cc1,inactive: -2.53%,–
COc1ccccc1-c1nnc2sc(-c3cnccn3)nn12,–,"inconclusive: 29.1 µM [activator, single point]"
COc1ccc(OC)c(/C=C/C(=O)c2ccc(Cl)cc2)c1,–,"inconclusive: 29.1 µM [activator, single point]"
O=C(/C=C/c1cccs1)NC(=S)Nc1ccc(C(=O)O)cc1,–,"inconclusive: 29.1 µM [activator, single point]"
Cc1c(C(=O)Nc2ccc(-c3nnc4n3CCCCC4)cc2)oc2c1ccc1ccccc12,–,"inconclusive: 23.1 µM [activator, partial curve, poor fit]"
O=C(Nc1nnc(C2=COCCO2)o1)c1cccc(C(F)(F)F)c1,inactive: 12.7%,–
CCOC(=O)N1CCN(C(=O)CSc2nnc(-c3cccc(OC)c3)o2)CC1,–,"inconclusive: 29.1 µM [activator, single point]"
CCOc1ccc(Br)cc1S(=O)(=O)Nc1ccc(NC(=O)c2ccccc2F)cc1,–,"inconclusive: 2.59 µM [activator, full curve, poor fit]"
CCOC(=O)c1[nH]c2ccc(OC)cc2c1NC(=S)N1CCN(c2cccc(C)c2C)CC1,–,"inconclusive: 29.1 µM [activator, single point]"
COc1ccc(C(=O)N(Cc2nc(-c3ccc(C)cc3)no2)C(C)C)cc1OC,–,"inconclusive: 1.84 µM [activator, partial curve, poor fit]"
CC(=O)c1cc(C(=O)c2ccccc2)sc1Nc1ccccc1,–,"inconclusive: 23.1 µM [activator, partial curve, poor fit]"
COc1ccc(C2(O)CCN(Cc3nnnn3Cc3ccc(C)cc3)CC2)cc1,–,"inconclusive: 18.4 µM [activator, single point]"
CCCCn1c(=O)[nH]c(=O)c2c1nc(-c1ccc(OC)c(Br)c1)n2CC(C)C,–,"inconclusive: 18.4 µM [activator, single point]"
COc1ccccc1-c1cc(C(=O)NCc2cccs2)no1,inactive: 3.38%,–
CC(C)c1ccc2c(c1)CCC1C(C)(CN)CCCC21C (stereo not given),–,active: 3.26 µM
CCC(NC(=O)c1ccccc1NC(=O)c1ccco1)C(=O)NNC(=O)c1ccc(OC)cc1 (stereo not given),–,"inconclusive: 23.1 µM [activator, partial curve, poor fit]"
CC1CCc2c(sc3ncn(CC(=O)N=Nc4c(O)[nH]c5ccccc45)c(=O)c23)C1 (stereo not given),inactive: 2.12%,–
O=[N+]([O-])c1ccc(CNc2cccc(F)c2)s1,inactive: -11.4%,–
COCCN1C=C(C(=O)OC)C(c2cc3c(cc2Br)OCO3)C(C(=O)OC)=C1,inactive: -5.27%,–
CC(C)(C)n1nnnc1C(c1ccncc1)N(Cc1ccccc1)Cc1ccco1 (stereo not given),inactive: 2.06% [at 9.22 µM],–
CCOC(=O)c1c(-c2ccccc2)oc2ccc(OCC(O)CN(C)C)cc12 (stereo not given),–,"inconclusive: 29.1 µM [activator, single point]"
COc1cc(/C=C(\C#N)C(=O)NCC2CCCO2)ccc1OCCC(C)C (stereo not given),inactive: -4.59%,–

SMILES,re-replication activation,Potency
Clc1cccc2c1Sc1ccccc1CC2N1CCNCC1 (stereo not given),inactive: 6.12%,–
O=C(O)c1ccc(-n2cncn2)c([N+](=O)[O-])c1,–,"inconclusive: 1.03 µM [activator, full curve, poor fit]"
CCOC(=O)C(C)N1N=C(/C=C/c2ccc(C)cc2)CCC1=O (stereo not given),inactive: 13.6%,–
COc1cccc(NC(=O)c2nn(-c3ccc(OC)cc3OC)c(=O)c3ccccc23)c1,–,"inconclusive: 4.61 µM [activator, full curve, poor fit]"
CC(=O)c1c(C)[nH]c(C(=O)OCC(=O)N(CC(C)C)C2CCS(=O)(=O)C2)c1C (stereo not given),inactive: -16.2%,–
COc1cccc(NS(=O)(=O)c2ccc(-c3coc(C)n3)cc2)c1,–,"inconclusive: 6.51 µM [activator, single point]"
NC(=O)c1ccsc1NC(=O)COC(=O)c1ccc(Cl)c(N)c1,inactive: -10.1%,–
COc1ccc(-c2ccc3c(=O)cc(-c4ccsc4)oc3c2)cn1,–,"inconclusive: 32.6 µM [activator, partial curve, poor fit]"
CC1(C)CC(=O)C2=C(C1)Nc1ccccc1NC2c1ccccc1F (stereo not given),inconclusive: 35.1% [activator],–
C[C@H]1CN=C(N(C)C)N1CCc1ccccc1,–,"inconclusive: 2.91 µM [activator, partial curve, poor fit]"
COc1ccccc1N(CC(=O)NC1CCCCC1)C(=O)CNC(=O)c1cccs1,inactive: 1.9%,–
COc1ccccc1C(=O)Nc1ccc(-c2nnn(CC(=O)NCc3ccco3)n2)cc1,–,"inconclusive: 20.6 µM [activator, single point]"
COc1ccc(NC(=O)c2cc(-c3ccccc3)nc3c2cnn3C(C)C)cc1,–,"inconclusive: 14.6 µM [activator, single point]"
CC/C(=N\NC(=S)Nc1ccc(OC)cc1)c1ccc(OC(F)F)cc1,–,"inconclusive: 29.1 µM [activator, single point]"
O=C(CSC1=Nc2ccccc2C2CC=NN12)Nc1ccc(F)c(F)c1F (stereo not given),inactive: 4.85%,–
CCc1cccc(N(C)C(N)=Nc2cccc3ccccc23)c1,–,"inconclusive: 33.5 µM [activator, partial curve, poor fit]"
COc1cccc(CNC(=O)CCC2CCCN(C/C=C/c3ccccc3OC)C2)c1 (stereo not given),inactive: -5.67%,–
CCCCn1ccnc1C(=O)c1cccc(S(=O)(=O)N2CC(C)CC(C)C2)c1 (stereo not given),–,"inconclusive: 23.1 µM [activator, single point]"
CCCCCOc1ccc(NC(=O)c2cc(SC)ccc2Cl)cc1,inactive: 7.29%,–
Cc1ccc2c(C)c(C(=O)Nc3ccc(S(N)(=O)=O)cc3)oc2c1C,–,"inconclusive: 5.17 µM [activator, full curve, poor fit]"
CCc1ccccc1-n1ncc(C(=O)Nc2ccc(OC)cc2)c1C,–,"inconclusive: 29.1 µM [activator, single point]"
O=C(NC(=S)Nc1cccc(NC(=S)NC(=O)c2ccco2)n1)c1ccco1,–,"inconclusive: 20.6 µM [activator, partial curve, poor fit]"

# Rewritten as tab-separated lines: 9 of the compounds above
SMILES	re-replication activation	Potency
COc1cccc(NS(=O)(=O)c2ccc(-c3coc(C)n3)cc2)c1	–	inconclusive: 6.51 µM [activator, single point]
NC(=O)c1ccsc1NC(=O)COC(=O)c1ccc(Cl)c(N)c1	inactive: -10.1%	–
COc1ccc(-c2ccc3c(=O)cc(-c4ccsc4)oc3c2)cn1	–	inconclusive: 32.6 µM [activator, partial curve, poor fit]
CC1(C)CC(=O)C2=C(C1)Nc1ccccc1NC2c1ccccc1F (stereo not given)	inconclusive: 35.1% [activator]	–
COc1ccccc1N(CC(=O)NC1CCCCC1)C(=O)CNC(=O)c1cccs1	inactive: 1.9%	–
COc1ccc(NC(=O)c2cc(-c3ccccc3)nc3c2cnn3C(C)C)cc1	–	inconclusive: 14.6 µM [activator, single point]
CCc1cccc(N(C)C(N)=Nc2cccc3ccccc23)c1	–	inconclusive: 33.5 µM [activator, partial curve, poor fit]
CCCCCOc1ccc(NC(=O)c2cc(SC)ccc2Cl)cc1	inactive: 7.29%	–
CCc1ccccc1-n1ncc(C(=O)Nc2ccc(OC)cc2)c1C	–	inconclusive: 29.1 µM [activator, single point]
